{"sequences": {"note": "Sequences of proteins named here, by UniProt entry; tags and fusion partners are left off.", "UniProt P41229": "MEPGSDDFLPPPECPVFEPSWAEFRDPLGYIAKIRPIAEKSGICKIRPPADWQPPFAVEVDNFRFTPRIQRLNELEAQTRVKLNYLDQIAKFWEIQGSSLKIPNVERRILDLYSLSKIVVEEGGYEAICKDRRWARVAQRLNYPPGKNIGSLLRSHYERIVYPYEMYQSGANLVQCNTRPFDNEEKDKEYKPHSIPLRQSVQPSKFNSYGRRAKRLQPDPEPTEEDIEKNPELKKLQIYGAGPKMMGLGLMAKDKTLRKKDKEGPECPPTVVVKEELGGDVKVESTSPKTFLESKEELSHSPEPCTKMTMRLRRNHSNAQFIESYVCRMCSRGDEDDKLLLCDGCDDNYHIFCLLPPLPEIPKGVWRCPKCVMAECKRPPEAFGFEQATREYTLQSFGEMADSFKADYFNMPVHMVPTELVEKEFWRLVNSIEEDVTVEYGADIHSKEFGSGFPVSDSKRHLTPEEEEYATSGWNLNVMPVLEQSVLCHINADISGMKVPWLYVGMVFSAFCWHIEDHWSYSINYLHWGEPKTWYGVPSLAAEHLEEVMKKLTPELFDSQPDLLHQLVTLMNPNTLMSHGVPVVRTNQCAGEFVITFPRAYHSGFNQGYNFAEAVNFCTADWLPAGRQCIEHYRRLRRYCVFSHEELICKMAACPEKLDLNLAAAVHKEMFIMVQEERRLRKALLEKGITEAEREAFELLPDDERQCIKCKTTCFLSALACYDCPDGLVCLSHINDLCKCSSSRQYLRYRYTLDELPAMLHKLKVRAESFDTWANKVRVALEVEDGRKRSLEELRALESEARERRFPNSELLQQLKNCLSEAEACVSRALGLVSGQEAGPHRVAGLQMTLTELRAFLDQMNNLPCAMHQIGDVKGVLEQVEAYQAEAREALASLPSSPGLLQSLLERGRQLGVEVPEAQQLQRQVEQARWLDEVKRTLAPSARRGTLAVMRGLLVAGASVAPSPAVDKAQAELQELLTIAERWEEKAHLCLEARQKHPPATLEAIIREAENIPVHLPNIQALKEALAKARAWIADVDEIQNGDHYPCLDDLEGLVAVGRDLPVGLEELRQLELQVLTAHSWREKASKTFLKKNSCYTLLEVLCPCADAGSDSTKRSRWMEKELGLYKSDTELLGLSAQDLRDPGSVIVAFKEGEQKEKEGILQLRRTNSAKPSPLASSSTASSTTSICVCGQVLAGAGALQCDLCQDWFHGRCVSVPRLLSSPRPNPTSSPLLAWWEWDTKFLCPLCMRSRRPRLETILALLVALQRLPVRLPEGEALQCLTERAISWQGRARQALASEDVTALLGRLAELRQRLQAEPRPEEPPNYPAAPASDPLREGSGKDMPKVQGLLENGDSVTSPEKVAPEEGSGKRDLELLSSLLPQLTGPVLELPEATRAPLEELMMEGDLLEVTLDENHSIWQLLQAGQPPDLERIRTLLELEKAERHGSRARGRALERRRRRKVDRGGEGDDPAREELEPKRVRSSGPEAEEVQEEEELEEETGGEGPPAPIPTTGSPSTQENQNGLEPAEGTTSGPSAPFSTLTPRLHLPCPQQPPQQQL", "UniProt P50750": "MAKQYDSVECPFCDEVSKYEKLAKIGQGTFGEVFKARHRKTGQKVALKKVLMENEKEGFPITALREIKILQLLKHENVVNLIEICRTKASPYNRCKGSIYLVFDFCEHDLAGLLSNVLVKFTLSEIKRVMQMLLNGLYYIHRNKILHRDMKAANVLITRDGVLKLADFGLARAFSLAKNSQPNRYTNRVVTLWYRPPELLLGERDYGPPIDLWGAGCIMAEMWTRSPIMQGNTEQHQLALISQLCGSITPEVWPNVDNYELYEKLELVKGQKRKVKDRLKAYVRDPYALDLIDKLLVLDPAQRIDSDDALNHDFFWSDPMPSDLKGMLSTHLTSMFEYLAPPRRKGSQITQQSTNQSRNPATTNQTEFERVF", "UniProt Q9UHD2": "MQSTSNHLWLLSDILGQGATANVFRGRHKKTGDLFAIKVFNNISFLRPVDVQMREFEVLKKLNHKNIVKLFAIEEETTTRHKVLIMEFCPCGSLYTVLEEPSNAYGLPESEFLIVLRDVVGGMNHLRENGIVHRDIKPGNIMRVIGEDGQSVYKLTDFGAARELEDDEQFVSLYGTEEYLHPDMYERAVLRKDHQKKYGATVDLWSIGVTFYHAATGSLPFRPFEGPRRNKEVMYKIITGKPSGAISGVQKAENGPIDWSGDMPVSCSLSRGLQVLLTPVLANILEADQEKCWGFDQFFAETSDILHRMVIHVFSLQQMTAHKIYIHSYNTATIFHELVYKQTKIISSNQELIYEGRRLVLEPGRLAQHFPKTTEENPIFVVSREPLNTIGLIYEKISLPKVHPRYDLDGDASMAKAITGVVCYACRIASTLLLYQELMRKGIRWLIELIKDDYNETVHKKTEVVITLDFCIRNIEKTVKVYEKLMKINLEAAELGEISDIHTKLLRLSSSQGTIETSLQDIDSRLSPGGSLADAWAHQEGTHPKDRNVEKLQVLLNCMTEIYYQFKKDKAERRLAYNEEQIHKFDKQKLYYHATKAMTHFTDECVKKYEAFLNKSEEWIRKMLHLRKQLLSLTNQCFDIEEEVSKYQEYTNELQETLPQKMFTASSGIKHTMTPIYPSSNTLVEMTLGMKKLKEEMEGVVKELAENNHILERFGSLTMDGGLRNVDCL", "UniProt P03372": "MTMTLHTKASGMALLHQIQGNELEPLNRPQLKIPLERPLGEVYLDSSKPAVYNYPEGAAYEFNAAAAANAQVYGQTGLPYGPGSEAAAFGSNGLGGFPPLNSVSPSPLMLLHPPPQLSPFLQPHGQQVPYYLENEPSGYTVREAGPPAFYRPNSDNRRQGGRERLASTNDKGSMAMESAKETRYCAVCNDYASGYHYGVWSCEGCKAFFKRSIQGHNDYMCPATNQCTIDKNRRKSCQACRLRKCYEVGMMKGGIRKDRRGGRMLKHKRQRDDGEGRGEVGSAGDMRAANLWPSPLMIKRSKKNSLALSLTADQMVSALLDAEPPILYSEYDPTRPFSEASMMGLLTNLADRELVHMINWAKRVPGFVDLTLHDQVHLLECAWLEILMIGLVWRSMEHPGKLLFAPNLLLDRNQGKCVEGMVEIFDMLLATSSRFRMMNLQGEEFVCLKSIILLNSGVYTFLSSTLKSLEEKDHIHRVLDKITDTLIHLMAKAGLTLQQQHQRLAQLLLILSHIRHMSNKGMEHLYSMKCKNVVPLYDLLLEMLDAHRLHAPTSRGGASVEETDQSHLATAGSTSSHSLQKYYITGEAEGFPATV"}, "source": "paper PMC8097366", "about": "“The Dual Function of KDM5C in Both Gene Transcriptional Activation and Repression Promotes Breast Cancer Cell Growth and Tumorigenesis” (Advanced Science, 2021)", "molecules": {"B1": {"name": "ZNF687, endogenous in MCF7 (protein, UniProt Q8N1G0 1-1237)", "chain": "MGDMKTPDFDDLLAAFDIPDIDANEAIHSGPEENEGPGGPGKPEPGVGSESEDTAAASAGDGPGVPAQASDHGLPPPDISVVSVIVKNTVCPEQSEALAGGSAGDGAQAAGVTKEGPVGPHRMQNGFGSPEPSLPGTPHSPAPPSGGTWKEKGMEGKTPLDLFAHFGPEPGDHSDPLPPSAPSPTREGALTPPPFPSSFELAQENGPGMQPPVSSPPLGALKQESCSPHHPQVLAQQGSGSSPKATDIPASASPPPVAGVPFFKQSPGHQSPLASPKVPVCQPLKEEDDDEGPVDKSSPGSPQSPSSGAEAADEDSNDSPASSSSRPLKVRIKTIKTSCGNITRTVTQVPSDPDPPAPLAEGAFLAEASLLKLSPATPTSEGPKVVSVQLGDGTRLKGTVLPVATIQNASTAMLMAASVARKAVVLPGGTATSPKMIAKNVLGLVPQALPKADGRAGLGTGGQKVNGASVVMVQPSKTATGPSTGGGTVISRTQSSLVEAFNKILNSKNLLPAYRPNLSPPAEAGLALPPTGYRCLECGDAFSLEKSLARHYDRRSMRIEVTCNHCARRLVFFNKCSLLLHAREHKDKGLVMQCSHLVMRPVALDQMVGQPDITPLLPVAVPPVSGPLALPALGKGEGAITSSAITTVAAEAPVLPLSTEPPAAPATSAYTCFRCLECKEQCRDKAGMAAHFQQLGPPAPGATSNVCPTCPMMLPNRCSFSAHQRMHKNRPPHVCPECGGNFLQANFQTHLREACLHVSRRVGYRCPSCSVVFGGVNSIKSHIQTSHCEVFHKCPICPMAFKSGPSAHAHLYSQHPSFQTQQAKLIYKCAMCDTVFTHKPLLSSHFDQHLLPQRVSVFKCPSCPLLFAQKRTMLEHLKNTHQSGRLEETAGKGAGGALLTPKTEPEELAVSQGGAAPATEESSSSSEEEEVPSSPEPPRPAKRPRRELGSKGLKGGGGGPGGWTCGLCHSWFPERDEYVAHMKKEHGKSVKKFPCRLCERSFCSAPSLRRHVRVNHEGIKRVYPCRYCTEGKRTFSSRLILEKHVQVRHGLQLGAQSPGRGTTLARGSSARAQGPGRKRRQSSDSCSEEPDSTTPPAKSPRGGPGSGGHGPLRYRSSSSTEQSLMMGLRVEDGAQQCLDCGLCFASPGSLSRHRFISHKKRRGVGKASALGLGDGEEEAPPSRSDPDGGDSPLPASGGPLTCKVCGKSCDSPLNLKTHFRTHGMAFIRARQGAVGDN"}, "B2": {"name": "ZNF592, endogenous in MCF7 (protein, UniProt Q92610 1-1267)", "chain": "MGDMKTPDFDDLLAAFDIPDPTSLDAKEAIQTPSEENESPLKPPGICMDESVSLSHSGSAPDVPAVSVIVKNTSRQESFEAEKDHITPSLLHNGFRGSDLPPDPHNCGKFDSTFMNGDSARSFPGKLEPPKSEPLPTFNQFSPISSPEPEDPIKDNGFGIKPKHSDSYFPPPLGCGAVGGPVLEALAKFPVPELHMFDHFCKKEPKPEPLPLGSQQEHEQSGQNTVEPHKDPDATRFFGEALEFNSHPSNSIGESKGLARELGTCSSVPPRQRLKPAHSKLSSCVAALVALQAKRVASVTKEDQPGHTKDLSGPTKESSKGSPKMPKSPKSPRSPLEATRKSIKPSDSPRSICSDSSSKGSPSVAASSPPAIPKVRIKTIKTSSGEIKRTVTRILPDPDDPSKSPVGSPLGSAIAEAPSEMPGDEVPVEEHFPEAGTNSGSPQGARKGDESMTKASDSSSPSCSSGPRVPKGAAPGSQTGKKQQSTALQASTLAPANLLPKAVHLANLNLVPHSVAASVTAKSSVQRRSQPQLTQMSVPLVHQVKKAAPLIVEVFNKVLHSSNPVPLYAPNLSPPADSRIHVPASGYCCLECGDAFALEKSLSQHYGRRSVHIEVLCTLCSKTLLFFNKCSLLRHARDHKSKGLVMQCSQLLVKPISADQMFVSAPVNSTAPAAPAPSSSPKHGLTSGSASPPPPALPLYPDPVRLIRYSIKCLECHKQMRDYMVLAAHFQRTTEETEGLTCQVCQMLLPNQCSFCAHQRIHAHKSPYCCPECGVLCRSAYFQTHVKENCLHYARKVGYRCIHCGVVHLTLALLKSHIQERHCQVFHKCAFCPMAFKTASSTADHSATQHPTQPHRPSQLIYKCSCEMVFNKKRHIQQHFYQNVSKTQVGVFKCPECPLLFVQKPELMQHVKSTHGVPRNVDELSSLQSSADTSSSRPGSRVPTEPPATSVAARSSSLPSGRWGRPEAHRRVEARPRLRNTGWTCQECQEWVPDRESYVSHMKKSHGRTLKRYPCRQCEQSFHTPNSLRKHIRNNHDTVKKFYTCGYCTEDSPSFPRPSLLESHISLMHGIRNPDLSQTSKVKPPGGHSPQVNHLKRPVSGVGDAPGTSNGATVSSTKRHKSLFQCAKCSFATDSGLEFQSHIPQHQVDSSTAQCLLCGLCYTSASSLSRHLFIVHKVRDQEEEEEEEAAAAEMAVEVAEPEEGSGEEVPMETRENGLEECAGEPLSADPEARRLLGPAPEDDGGHNDHSQPQASQDQDSHTLSPQV"}}, "key": {"[1]": {"biological_target": "Flag- and HA-tagged KDM5C (pCDH-CMV-3×Flag-KDM5C-3×HA-EF1-Puro) (UniProt P41229)", "assay": "affinity purification with mass spectrometry; nuclear extracts of SILAC-labelled MCF7 cells expressing Flag-HA-tagged KDM5C, with or without estrogen (10^-7 M, 1 h), pooled; anti-HA agarose, washes with 0.15 M and 0.1 M KCl, 0.2% NP-40, elution with HA peptides; LC-MS/MS"}, "[2]": {"biological_target": "Flag- and HA-tagged KDM5C (pCDH-CMV-3×Flag-KDM5C-3×HA-EF1-Puro) (UniProt P41229)", "assay": "affinity purification with mass spectrometry; cytosolic fraction of SILAC-labelled MCF7 cells expressing Flag-HA-tagged KDM5C, with or without estrogen; affinity purification and MS"}, "[3]": {"biological_target": "Flag- and HA-tagged KDM5C (pCDH-CMV-3×Flag-KDM5C-3×HA-EF1-Puro) (UniProt P41229)", "assay": "affinity purification with mass spectrometry; affinity purification of Flag-HA-tagged KDM5C from MCF7 cells as in a1 and a2; the sentence does not tell the fraction (nuclear or cytosolic)"}, "[4]": {"biological_target": "Flag- and HA-tagged KDM5C (pCDH-CMV-3×Flag-KDM5C-3×HA-EF1-Puro) (UniProt P41229)", "assay": "affinity purification with mass spectrometry; nuclear extracts of SILAC-labelled MCF7 cells expressing Flag-HA-tagged KDM5C, with or without estrogen (10^-7 M, 1 h), pooled; anti-HA agarose, washes with 0.15 M and 0.1 M KCl, 0.2% NP-40, elution with HA peptides; LC-MS/MS", "remark": "listed apart in the source"}}, "note": "No constants are given. Whether binding was seen depends on the method and setting. Binding seen in cells or lysates may run through a third protein. A yes stands for co-enrichment or nearness to the bait. Other partners may have been found.", "data": [{"molecule": "CDK9, endogenous in MCF7 (from UniProt P50750 1-372)", "values": [{"measurement": "binding", "setting": "[1]", "value": "binds"}]}, {"molecule": "TBK1, endogenous in MCF7 (from UniProt Q9UHD2 1-729) (enzyme)", "values": [{"measurement": "binding", "setting": "[2]", "value": "binds"}]}, {"molecule": "estrogen receptor alpha, endogenous in MCF7 (from UniProt P03372 1-595)", "values": [{"measurement": "binding", "setting": "[3]", "value": "binds"}]}, {"molecule": "B1", "values": [{"measurement": "binding", "setting": "[4]", "value": "binds"}]}, {"molecule": "B2", "values": [{"measurement": "binding", "setting": "[4]", "value": "binds"}]}]}
